Source: ChEMBL document CHEMBL3988442, “University of Dundee, Small-Polar-MMV Screening Library” (2021).

Mtb growth Cornell: 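Whole-cell assay for inhibitors of Mycobacterium tuberculosis growth, labelled Cornell in the record; the read-out is not stated. The concentration is filed as 10 mM, unlikely as a test dose, so the dose is not known. Higher means stronger inhibition (inferred from two other growth screens of the library). Of about 53,000 compounds tested this way, about 900 (1.7%) reached 50% or more in at least one test.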
Mtb heat-shock: 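Assay on Mycobacterium tuberculosis, filed only as a heat shock assay from Cornell; the read-out is not stated. The concentration is filed as 10 mM, unlikely as a test dose, so the dose is not known. Higher reads as stronger inhibition (inferred: compounds with an IC50 in retests scored well above the rest). Of about 69,000 compounds tested this way, about 930 (1.4%) reached 50% or more in at least one test.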

Results are given as percent effect. The record does not define 0% and 100%; most values in the screen are far below 50% and negative numbers occur (in some assays of this library far below -100). The compounds are a random part of those screened. A dash means the value is not listed here; it may have been measured.

| # | Compound | Mtb growth Cornell | Mtb heat-shock |
|---|---|---|---|
| 1 | `CC(C)(C)OC(=O)N1CCCc2ccc(NCc3ncc[nH]3)cc21` | -12.48 | 9.465 |
| 2 | `CCOC(=O)N1CCN(c2nc(N)c3ccccc3n2)CC1.Cl` | -12.77 | -37.01 |
| 3 | `CC(O)(CNC(=O)c1cccnc1-n1cccn1)c1ccco1` (configuration not stated) | -14.56 | 4.766 |
| 4 | `CCc1cc(NC(CCO)c2ccc(OC)cc2)n2nccc2n1` (configuration not stated) | - | -2.992 |
| 5 | `CC(=O)N1N=C(COc2ccc(Cl)cc2)OC1c1ccccc1` (configuration not stated) | 7.935 | -19.81 |
| 6 | `COCC(=O)N1CCC(C(=O)Nc2ccc(C(C)=O)cc2)CC1` | 3.512 | 17.49 |
| 7 | `CCCc1nccn1-c1cccc(C(C)O)c1` (configuration not stated) | 12.43 | -5.846 |
| 8 | `COc1ccccc1CN1CC[C@]2(C[C@@H](OC)CO2)C1.O=C(O)C(F)(F)F` | 8.537 | -25.14 |
| 9 | `CC(C)(C)CC(=O)NS(=O)(=O)c1ccc(F)cc1C(F)(F)F` | 36.18 | -1.282 |
| 10 | `COc1ccc(C(C(=O)O)N(C)CCN2CCCC2)c(C)c1` (configuration not stated) | -31.46 | -11.52 |
| 11 | `Cc1cnc(C(C)(C)NC(=O)NCc2ccon2)s1` | - | -13.79 |
| 12 | `O=C1CC(N(C(=O)COc2ccc(F)cc2F)C2CC2)C(=O)N1` (configuration not stated) | 9.934 | -0.7574 |
| 13 | `CSc1nc(C2CC2)nc(C)c1C(=O)NCc1ccco1` | 18.33 | -9.227 |
| 14 | `CC(=O)N1CCC(C(=O)NCCN2CCC(C)CC2)CC1` | -44.02 | 4.259 |
| 15 | `CN(Cc1nnc2n1CCC2)C(=O)c1ccc2c(c1)OCCCO2` | - | -22.1 |
| 16 | `Cn1cnc2nc3n(c2c1=O)CCC3` | -61.82 | 12.7 |
| 17 | `CN(C)C(=O)CN1CCC2(CCCN(Cc3cccnc3)C2)C1=O.O=C(O)C(F)(F)F.O=C(O)C(F)(F)F` (configuration not stated) | -25.85 | 6.903 |
| 18 | `Cc1nccnc1-n1c(COCC(=O)O)nc2c(C)cccc21` | 5.264 | 10.07 |
| 19 | `Cc1ccc(S(=O)(=O)c2ncccc2CN2CCCCC2)cc1` | 31.5 | -7.247 |
| 20 | `CCn1ncc2c1C(COC)CN(Cc1ccc(F)cc1)C2.O=C(O)C(F)(F)F.O=C(O)C(F)(F)F` (configuration not stated) | - | -13.12 |
| 21 | `Cc1cc(C)c(C(=O)NC(c2nnc3n2CCNCC3)C(C)C)c(C)c1` (configuration not stated) | 5.712 | 8.817 |
| 22 | `Cn1cccc1C(=O)NCc1cnc2n1CCN(C(=O)N1CCCC1)C2` | 19.45 | 10.34 |
| 23 | `CCn1c(C)cc(C(=O)NCc2cccc(S(=O)(=O)NC)c2)c1C` | -14.43 | 2.929 |
| 24 | `CCN(CC)c1ccc(NS(=O)(=O)c2cnn(C)c2)cn1` | 9.807 | -23.7 |
| 25 | `c1cc(-c2noc([C@@H]3CCCN3CC3CC3)n2)cc(N2CCCC2)n1` | 2.251 | -47.73 |
| 26 | `CC[C@@H]1N(Cc2ccc(C)s2)CCC[C@]12CCC(=O)N2C.O=C(O)C(F)(F)F` | 23.99 | 1.978 |
| 27 | `O=S(=O)(NCC1COc2ccccc2C1)N1CCCC1` (configuration not stated) | 15.67 | -9.966 |
| 28 | `O=S(=O)(CCN1CCN(c2ccccc2O)CC1)c1ccc(Br)cc1` | -40.87 | -20.59 |
| 29 | `CCc1c(O)nc(SCC(=O)N(CC)CC)n(C(C)CC)c1=O` (configuration not stated) | 4.731 | -3.095 |
| 30 | `O=C(c1ccccn1)N1CCC(c2nccn2Cc2ccncc2)CC1` | 10.84 | 8.327 |
| 31 | `Cn1ccn2ncc(C(=O)NCc3cccnc3N3CCCC(O)C3)c12` (configuration not stated) | 12.15 | 5.688 |
| 32 | `COc1ccc(-n2c(CCC(=O)O)nc3ccccc32)cc1CO` | -31.99 | -2.559 |
| 33 | `Cc1cnc(CN2CCN(C(C)c3nc(C4CC4)no3)CC2)cn1` (configuration not stated) | 7.659 | 4.195 |
| 34 | `COc1ccc(Cl)cc1CS(=O)(=O)CC(=O)N(C)Cc1ccccc1F` | 10.7 | 13.03 |
| 35 | `CCc1[nH]ncc1C(=O)N1CCCC(n2cccn2)C1` (configuration not stated) | - | 1.513 |
| 36 | `CCc1noc(CC)c1CC(=O)N1CCN(C(=O)C2CCCC2)CC1` | 2.014 | 17.15 |
| 37 | `Cn1nccc1-c1nc2c(cc1C(=O)O)CCN(CC1CC1)CC2` | -27.49 | -8.161 |
| 38 | `COCC(C)(CCO)NC(=O)Nc1cccc(Br)c1C` (configuration not stated) | 3.897 | 16.48 |
| 39 | `Cc1cnn(CC2CN(Cc3nc(-c4ccccn4)no3)CCO2)c1` (configuration not stated) | - | -4.769 |
| 40 | `COc1cc(CNc2ccc(Cl)cc2)ccc1OCC(=O)O` | -3.069 | 7.164 |
| 41 | `Nc1nccnc1C(=O)NC1CCCN(Cc2c(F)cccc2F)C1` (configuration not stated) | 3.277 | -1.521 |
| 42 | `CC(C)CNC(=O)Nc1cccc(CN2CCOC2=O)c1` | -25.39 | -2.17 |
| 43 | `Cc1cccc(C)c1OCC(O)CNCc1c(C)nn(C)c1N(C)C` (configuration not stated) | 43.24 | -5.48 |
| 44 | `Cc1nc2ccccc2n1CCNCc1cccc(O)c1` | -7.691 | 19.27 |
| 45 | `Cc1cc(CN2CCOC(CNc3cccnn3)C2)on1` (configuration not stated) | - | 15.73 |
| 46 | `CCc1nc(CN2CCCC(Nc3ncnc4ccsc34)C2)no1` (configuration not stated) | - | -14.59 |
| 47 | `COc1ccc(OC)c(C2SCC(=O)Nc3n[nH]cc32)c1` (configuration not stated) | 21 | 10.9 |
| 48 | `CCN(CC)C(=O)CSc1nc2c(cnn2CCO)c(=O)[nH]1` | -3.497 | 6.75 |
| 49 | `[H][C@@]12CCN(Cc3cccnc3)C[C@@]1([H])[C@H](C(=O)N1CCCCO1)CCO2` | - | 18.73 |
| 50 | `Cc1cc(C2CCNCC2)nc(-c2ccsc2)n1.Cl` | -0.7835 | -13.2 |
| 51 | `COc1ccc(F)c(-c2ncccc2NC(=O)C(C)C)c1` | -36.39 | 6.653 |
| 52 | `O=S(=O)(c1ccc(F)cc1Cl)N1CCCC1c1ccncc1` (configuration not stated) | 8.973 | -8.347 |
| 53 | `CN(Cc1cnn(C)c1)C(=O)NCc1ccc2c(c1)OCCO2` | - | -19.75 |
| 54 | `CN(CCn1cccn1)c1cc(C(F)(F)F)nc(-c2cccnc2)n1` | -11.22 | -9.923 |
| 55 | `COCC(=O)NC[C@@]1(COc2cccnc2)C[C@@H](O)[C@@H](O)C1.Cl` | 4.6 | -13.56 |
| 56 | `c1cnn(CC2CCCCN2Cc2nc(-c3ccsc3)no2)c1` (configuration not stated) | 23.23 | -10.82 |
| 57 | `CCn1c(NCc2ccco2)nc2c(C)nn(C)c2c1=O` | - | 14.65 |
| 58 | `[H][C@]12CCC[C@@]1(COCc1cccnc1)CN(C(=O)c1cocn1)C2` | - | -11.79 |
| 59 | `CCn1nc(C)c(CN(CCOC)C(=O)c2ccc(=O)[nH]n2)c1C` | -43.44 | 14.75 |
| 60 | `CN(Cc1cc2n(n1)CCNC2)Cc1cc(-c2ccccn2)no1` | 7.951 | 9.723 |
| 61 | `[H][C@@]12C[C@H](C(=O)N(C)C)[C@@]([H])(CN(S(=O)(=O)Cc3ccccc3)C1)O2` | - | 1.84 |